No constants are given. Whether binding was seen depends on the method and setting. Some binding calls cover weakened binding; strength is not graded here. Tags and fused reporters may be left off the sequences shown.
Tests used:
[1] = target: T1, Biotinylated Human 2B4/CD244/SLAMF4 Protein, Fc, Avitag (2B4-H82F0) (human) (UniProt Q9BZW8); test: BLI (Octet RED96), target on sensor, monobody 40 nM
T1 sequence (biotinylated (Avitag), looked up): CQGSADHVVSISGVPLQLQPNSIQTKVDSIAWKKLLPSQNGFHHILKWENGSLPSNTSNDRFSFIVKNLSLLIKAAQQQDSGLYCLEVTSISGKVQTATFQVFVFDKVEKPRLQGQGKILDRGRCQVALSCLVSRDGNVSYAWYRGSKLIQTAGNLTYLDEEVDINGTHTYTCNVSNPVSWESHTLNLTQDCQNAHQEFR

[2] = target: T1, Biotinylated Human 2B4/CD244/SLAMF4 Protein, Fc, Avitag (2B4-H82F0) (human); test: BLI (bio-layer interferometry) with expressed and purified clones
[3] = target: T1, Biotinylated Human 2B4/CD244/SLAMF4 Protein, Fc, Avitag (2B4-H82F0) (human); test: BLI (Octet RED96)

Measured: binding

B1: Mb-2B4-CD-3 (designed binder)
chain: LEVVEASPTSIQISWDAPAVTVRYYEILYGETGTPPWIHKGWVQYFTVPGSKSTATISGLKPGVDYTITVYAVTVTPYGRKWVGMNGWPISINYRTEIDKPSQ
notes: Monobody on human fibronectin type III domain scaffold, CD-FG library; also called 2B4 CD-FG No. 3; not shown: Sortase A recognition site, His tag and any linker (X8n8) at the C terminus; MPNR in the library
binds: all assays above

B2: Mb-2B4-CD-1 (designed binder)
chain: LEVVEASPTSIQISWDAPAVTVRYYGIYYGETGTSPWVYNGYVQEFTVPGSKSTATISGLKPGVDYTITVYAVTDQYKSWNLEEFHPISINYRTEIDKPSQ
notes: Monobody on human fibronectin type III domain scaffold, CD-FG library; also called 2B4 CD-FG No. 1; not shown: Sortase A recognition site, His tag and any linker (X8n8) at the C terminus; MPNR in the library
binds: all assays above

From US20260071182A1 (GAIA BIOMEDICINE, published 2026)
